# Article PMC11749561
# The chains behind the UniProt entries cited, without tags or fusion partners.
# UniProt O96017: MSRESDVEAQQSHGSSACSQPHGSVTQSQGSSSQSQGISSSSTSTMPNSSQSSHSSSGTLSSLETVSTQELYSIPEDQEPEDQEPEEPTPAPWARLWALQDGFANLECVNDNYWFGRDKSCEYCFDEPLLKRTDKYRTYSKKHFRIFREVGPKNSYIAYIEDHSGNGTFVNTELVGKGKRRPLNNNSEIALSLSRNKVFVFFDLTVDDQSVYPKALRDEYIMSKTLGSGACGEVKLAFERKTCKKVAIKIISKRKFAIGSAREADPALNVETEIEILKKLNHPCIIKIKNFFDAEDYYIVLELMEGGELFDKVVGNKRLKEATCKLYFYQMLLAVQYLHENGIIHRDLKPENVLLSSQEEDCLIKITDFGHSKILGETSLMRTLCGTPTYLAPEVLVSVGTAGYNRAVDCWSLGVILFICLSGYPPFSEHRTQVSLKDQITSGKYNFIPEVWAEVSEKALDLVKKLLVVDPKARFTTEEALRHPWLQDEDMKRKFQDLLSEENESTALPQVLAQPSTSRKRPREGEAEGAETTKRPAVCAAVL
# UniProt O00327: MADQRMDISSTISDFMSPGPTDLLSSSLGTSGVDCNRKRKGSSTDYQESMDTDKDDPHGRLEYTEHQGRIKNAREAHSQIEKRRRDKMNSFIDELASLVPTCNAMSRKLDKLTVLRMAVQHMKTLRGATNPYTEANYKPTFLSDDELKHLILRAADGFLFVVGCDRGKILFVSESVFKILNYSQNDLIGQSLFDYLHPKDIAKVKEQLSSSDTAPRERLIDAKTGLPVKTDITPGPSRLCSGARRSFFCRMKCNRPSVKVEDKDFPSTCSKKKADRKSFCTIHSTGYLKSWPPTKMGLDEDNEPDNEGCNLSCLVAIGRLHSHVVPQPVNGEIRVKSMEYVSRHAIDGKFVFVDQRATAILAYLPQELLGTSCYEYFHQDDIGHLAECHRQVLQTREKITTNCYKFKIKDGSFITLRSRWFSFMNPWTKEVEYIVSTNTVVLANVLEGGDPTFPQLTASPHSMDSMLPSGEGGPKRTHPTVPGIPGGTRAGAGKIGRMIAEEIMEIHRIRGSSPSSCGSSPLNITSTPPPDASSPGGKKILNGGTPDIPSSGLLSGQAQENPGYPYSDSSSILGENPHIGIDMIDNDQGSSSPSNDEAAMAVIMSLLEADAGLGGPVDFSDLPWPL
# No constants are given. Whether binding was seen depends on the method and setting. Binding seen in cells or lysates may run through a third protein. Some binding calls cover weakened binding; strength is not graded here.
# Tests used:
# [1] = molecular target: checkpoint kinase CHK2 (UniProt O96017); test: co-IP; in HEK293T cells; untreated or at the indicated time points post 8 Gy X-irradiation; with or without the CHK2 inhibitor BML-277 (20 min post 8 Gy); bait not stated
# [2] = molecular target: brain and muscle ARNT-like 1 (BMAL1) (UniProt O00327); test: as above
Molecule,binding [1],binding [2]
brain and muscle ARNT-like 1 (BMAL1) (from UniProt O00327 1-626),no binding,–
"circadian locomotor output cycles kaput (CLOCK) (protein, UniProt O15516 1-846) MLFTVSCSKMSSIVDRDDSSIFDGLVEEDDKDKAKRVSRNKSEKKRRDQFNVLIKELGSMLPGNARKMDKSTVLQKSIDFLRKHKEITAQSDASEIRQDWKPTFLSNEEFTQLMLEALDGFFLAIMTDGSIIYVSESVTSLLEHLPSDLVDQSIFNFIPEGEHSEVYKILSTHLLESDSLTPEYLKSKNQLEFCCHMLRGTIDPKEPSTYEYVKFIGNFKSLNSVSSSAHNGFEGTIQRTHRPSYEDRVCFVATVRLATPQFIKEMCTVEEPNEEFTSRHSLEWKFLFLDHRAPPIIGYLPFEVLGTSGYDYYHVDDLENLAKCHEHLMQYGKGKSCYYRFLTKGQQWIWLQTHYYITYHQWNSRPEFIVCTHTVVSYAEVRAERRRELGIEESLPETAADKSQDSGSDNRINTVSLKEALERFDHSPTPSASSRSSRKSSHTAVSDPSSTPTKIPTDTSTPPRQHLPAHEKMVQRRSSFSSQSINSQSVGSSLTQPVMSQATNLPIPQGMSQFQFSAQLGAMQHLKDQLEQRTRMIEANIHRQQEELRKIQEQLQMVHGQGLQMFLQQSNPGLNFGSVQLSSGNSSNIQQLAPINMQGQVVPTNQIQSGMNTGHIGTTQHMIQQQTLQSTSTQSQQNVLSGHSQQTSLPSQTQSTLTAPLYNTMVISQPAAGSMVQIPSSMPQNSTQSAAVTTFTQDRQIRFSQGQQLVTKLVTAPVACGAVMVPSTMLMGQVVTAYPTFATQQQQSQTLSVTQQQQQQSSQEQQLTSVQQPSQAQLTQPPQQFLQTSRLLHGNPSTQLILSAAFPLQQSTFPQSHHQQHQSQQQQQLSRHRTDSLPDPSKVQPQ",binds,binds
